Test results as given in the supplement of paper PMC6078165.

System: BT20
Assay: relative JC-1 red fluorescence (viability) vs pre-drug, coculture with fibroblast (fraction); higher = more viable cancer cells
Protocol: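 JC-1 labelled TNBC cells cocultured 1:1 (1,500 cells each) with CellTrace Violet stained primary or stromal fibroblasts in 384-well plates in FluoroBrite medium, treated with one of 42 anticancer drugs at 0.1, 1, 10 or 100 uM. JC-1 red fluorescence (mitochondrial integrity in cancer cells only) was read by plate reader every 8 h for 72 h. Values are normalised to each well's pre-drug value. The stock of one drug was tenfold lower, so its dose labels may be too high.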

CCCCCOC(=O)Nc1nc(=O)n([C@@H]2O[C@H](C)[C@@H](O)[C@H]2O)cc1F [Capecitabine]
relative JC-1 red fluorescence
Settings	8 h	16 h	24 h	32 h	40 h	48 h	56 h	64 h	72 h
10 µM, coculture fibroblast: C12385	0.936	0.847	0.808	0.75	0.703	0.668	0.641	0.612	0.59
10 µM, coculture fibroblast: H6013	0.9	0.865	0.8649	0.82	0.787	0.7743	0.7712	0.758	0.7434
10 µM, coculture fibroblast: H6019	0.8501	0.778	0.762	0.698	0.65	0.631	0.605	0.574	0.549
10 µM, coculture fibroblast: H6076	0.794	0.889	0.776	0.725	0.686	0.6689	0.654	0.651	0.642
10 µM, coculture fibroblast: H6231	0.7704	0.961	0.83	0.756	0.704	0.642	0.59	0.559	0.526
10 µM, coculture fibroblast: HADF	0.989	0.885	0.844	0.801	0.762	0.711	0.703	0.674	0.635
10 µM, coculture fibroblast: HCFa	0.959	0.933	0.905	0.863	0.837	0.817	0.786	0.768	0.732
10 µM, coculture fibroblast: HCPF	0.902	0.882	0.78995	0.747	0.697	0.651	0.603	0.579	0.533
10 µM, coculture fibroblast: HHSteC	0.891	0.8103	0.7784	0.6878	0.635	0.596	0.5651	0.54463	0.515
10 µM, coculture fibroblast: HMF	0.825	0.91	0.797	0.7248	0.6655	0.61387	0.572	0.544	0.5088
10 µM, coculture fibroblast: HPFa	0.969	0.882	0.888	0.808	0.781	0.731	0.699	0.661	0.601
10 µM, coculture fibroblast: HUF	0.916	0.807	0.783	0.7	0.653	0.62	0.601	0.583	0.567
10 µM, coculture fibroblast: Hs5	0.928	0.912	0.816	0.757	0.694	0.654	0.6151	0.5861	0.56
10 µM, coculture fibroblast: Hs27A	0.812	0.81	0.804	0.919	0.92	0.886	0.854	0.818	0.746
10 µM, coculture fibroblast: Hs343T	0.825	0.878	0.7901	0.735	0.678	0.628	0.583	0.563	0.523
10 µM, coculture fibroblast: WS1	0.904	0.827	0.768	0.686	0.622	0.581	0.54	0.5	0.474
100 µM, coculture fibroblast: C12385	0.907	0.8314	0.778	0.7168	0.6641	0.6366	0.6068	0.579	0.5581
100 µM, coculture fibroblast: H6013	0.915	0.8733	0.841	0.807	0.764	0.756	0.745	0.724	0.719
100 µM, coculture fibroblast: H6019	0.885	0.825	0.814	0.752	0.724	0.703	0.685	0.674	0.662
100 µM, coculture fibroblast: H6076	0.951	0.917	0.8314	0.7984	0.75985	0.742	0.726	0.729	0.707
100 µM, coculture fibroblast: H6231	0.832	0.968	0.8573	0.7904	0.745	0.696	0.652	0.626	0.597
100 µM, coculture fibroblast: HADF	0.785	0.853	0.875	0.857	0.818	0.77	0.738	0.699	0.6646
100 µM, coculture fibroblast: HCFa	0.922	0.863	0.8342	0.7847	0.75	0.721	0.707	0.688	0.652
100 µM, coculture fibroblast: HCPF	0.875	0.946	0.867	0.8078	0.7583	0.7077	0.6605	0.642	0.595
100 µM, coculture fibroblast: HHSteC	0.911	0.85072	0.82087	0.761	0.722	0.689	0.656	0.6206	0.599
100 µM, coculture fibroblast: HMF	0.982	0.8993	0.8067	0.7525	0.714	0.667	0.634	0.599	0.565
100 µM, coculture fibroblast: HPFa	0.948	0.868	0.8715	0.7842	0.756	0.713	0.6898	0.6523	0.6067
100 µM, coculture fibroblast: HUF	0.919	0.813	0.776	0.702	0.65	0.617	0.599	0.582	0.564
100 µM, coculture fibroblast: Hs5	0.84	0.892	0.8156	0.7673	0.738	0.701	0.668	0.642	0.62
100 µM, coculture fibroblast: Hs27A	0.822	0.8	0.928	0.932	0.889	0.883	0.868	0.849	0.798
100 µM, coculture fibroblast: Hs343T	0.836	0.911	0.834	0.769	0.726	0.684	0.631	0.604	0.564
100 µM, coculture fibroblast: WS1	0.8691	0.7718	0.736	0.672	0.625	0.6	0.565	0.543	0.532

The reference is the same well before dosing, and untreated signal decays as well.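 Labels refer to human fibroblasts, largely primary: uterine (C12385, HUF), lung (H6013), bone (Hs27A), adrenal (HADF), skin (WS1), plus mammary HMF and breast cancer-associated Hs343T. Cancer lines are basal-like or mesenchymal-like triple-negative breast cancer. The paper counts as hits responses shifting over 3x the replicate standard deviation. The tissue of the other fibroblasts is not given here.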
